# Data as given in patent US10470445B2, “Fumarylacetoacetate hydrolase (Fah)-deficient and immunodeficient rats and uses thereof” (YECURIS CORPORATION, priority 2011, dated 2019).
# At least one structure is not confirmed: it was looked up by name or label, or the drawing left a doubt.
# How the values were obtained:
# [1] = tested on: Fah-deficient rats (SS-Fah-m1, SS-Fah-m2, SD-Fah-m3); experiment: NTBC rescue of embryonic lethality and liver/kidney injury in Fah mutant rats; assay type: in vivo, rat; settings: NTBC in drinking water of breeding heterozygotes (8 mg/mL) during pregnancy; FIG. 13
# [2] = tested on: Fah-deficient mice; settings: Fah-deficient mice treated with NTBC; cited from earlier work
smiles,measurement,setting,value
"O=C1CCCC(=O)C1C(=O)c1ccc(C(F)(F)F)cc1[N+](=O)[O-] [NTBC, 2-(2-nitro-4-trifluoro-methyl-benzoyl)-1,3 cyclohexanedione]",rescue of embryonic lethality (live born homozygous mutant pups from heterozygous breedings),[1],can rescue the lethal effects of these mutations at Mendelian or near-Mendelian ratios
same,liver function and neonatal lethality,[2],restores liver function and abolishes neonatal lethality
